Measurements from paper PMC9368926.

B1: SAPK8 (enzyme, UniProt Q7Y0B9 1-371)
chain: MAAAGAGAGAPDRAALTVGPGMDMPIMHDSDRYELVRDIGSGNFGVARLMRDRRTMELVAVKYIERGEKIDDNVQREIINHRSLKHPNIIRFKEVILTPTHLAIVMEYASGGELFERICKNVRFSEDEARYFFQQLISGVSYCHSMQVCHRDLKLENTLLDGSPAPRLKICDFGYSKSSVLHSQPKSTVGTPAYIAPEVLLKKEYDGKTADVWSCGVTLYVMVVGAYPFEDPEEPKNFRKTIQRILNVQYSIPENVDISPECRHLISRIFVGDPSLRITIPEIRSHGWFLKNLPADLMDDDSMSSQYEEPDQPMQTMDQIMQILTEATIPPACSRINHILTDGLDLDDDMDDLDSDSDIDVDSSGEIVYAM
B2: SAPK6 (enzyme, UniProt Q6ZI44 1-365)
chain: MEKYELLKDIGSGNFGVARLMRNRETKELVAMKYIPRGLKIDENVAREIINHRSLRHPNIIRFKEVVLTPTHLAIVMEYAAGGELFDRICSAGRFSEDESRYFFQQLICGVSYCHFMQICHRDLKLENTLLDGSPAPRLKICDFGYSKSSLLHSKPKSTVGTPAYIAPEVLSRREYDGKMADVWSCGVTLYVMLVGAYPFEDPDDPKNFRKTIGRIVSIQYKIPEYVHISQDCRQLLSRIFVANPAKRITIREIRNHPWFMKNLPRELTEAAQAKYYKKDNSARTFSDQTVDEIMKIVQEAKTPPPSSTPVAGFGWTEEEEQEDGKNPDDDEGDRDEEEGEEGDSEDEYTKQVKQAHASCDLQKS
B3: SAPK7 (enzyme, UniProt Q7XQP4 1-359)
chain: MERYELLKDIGAGNFGVARLMRNKETKELVAMKYIPRGLKIDENVAREIINHRSLRHPNIIRFKEVVVTPTHLAIVMEYAAGGELFDRICNAGRFSEDEARYFFQQLICGVSYCHFMQICHRDLKLENTLLDGSPAPRLKICDFGYSKSSLLHSKPKSTVGTPAYIAPEVLSRREYDGKTADVWSCGVTLYVMLVGAYPFEDPDDPKNFRKTIGRIMSIQYKIPEYVHVSQDCRQLLSRIFVANPAKRITIREIRNHPWFLKNLPRELTEAAQAMYYKKDNSAPTYSVQSVEEIMKIVEEARTPPRSSTPVAGFGWQEEDEQEDNSKKPEEEQEEEEDAEDEYDKQVKQVHASGEFQLS
B4: SAPK10 (enzyme, UniProt Q75H77 1-362)
chain: MDRAALTVGPGMDMPIMHDGDRYELVRDIGSGNFGVARLMRSRADGQLVAVKYIERGDKIDENVQREIINHRSLRHPNIIRFKEVILTPTHLAIVMEYASGGELFERICNAGRFSEDEARFFFQQLISGVSYCHSMQVCHRDLKLENTLLDGSTAPRLKICDFGYSKSSVLHSQPKSTVGTPAYIAPEVLLKKEYDGKIADVWSCGVTLYVMLVGAYPFEDPDEPKNFRKTIQRILGVQYSIPDYVHISPECRDLIARIFVANPATRISIPEIRNHPWFLKNLPADLMDDSKMSSQYEEPEQPMQSMDEIMQILAEATIPAAGSGGINQFLNDGLDLDDDMEDLDSDPDLDVESSGEIVYAM
B5: SAPK5 (enzyme, UniProt Q7XKA8 1-370)
chain: MEKYEPVREIGAGNFGVAKLMRNKETRELVAMKFIERGNRIDENVFREIVNHRSLRHPNIIRFKEVVVTGRHLAIVMEYAAGGELFERICEAGRFHEDEARYFFQQLVCGVSYCHAMQICHRDLKLENTLLDGSPAPRLKICDFGYSKSSLLHSRPKSTVGTPAYIAPEVLSRREYDGKLADVWSCGVTLYVMLVGAYPFEDPKDPKNFRKTISRIMSVQYKIPEYVHVSQPCRHLLSRIFVANPYKRISMGEIKSHPWFLKNLPRELKEEAQAVYYNRRGADHAASSASSAAAAAAFSPQSVEDIMRIVQEAQTVPKPDKPVSGYGWGTDDDDDDQQPAEEEDEEDDYDRTVREVHASVDLDMSNLQIS
B6: SAPK2 (enzyme, UniProt Q0D4J7 1-339)
chain: MERYEVIKDIGSGNFGVAKLVRDVRTKELFAVKFIERGQKIDENVQREIMNHRSLRHPNIVRFKEVVLTPTHLAIVMEYAAGGELFERICSAGRFSEDEARFFFQQLISGVSYCHSMQICHRDLKLENTLLDGSIAPRLKICDFGYSKSSLLHSQPKSTVGTPAYIAPEVLARKEYDGKVADVWSCGVTLYVMLVGAYPFEDPDEPRNFRKTITRILSVQYMVPDYVRVSMECRHLLSRIFVANPEQRITIPEIKNHPWFLKNLPIEMTDEYQMSVQMNDINTPSQGLEEIMAIIQEARKPGDGSKFSGQIPGLGSMELDDVDTDDIDVEDSGDFVCAL

Biological target: OsNF-YC10 (rice (Oryza sativa))
Assay: two-hybrid; NF-YCs as bait in pDEST32 (BD), SAPKs as prey in pDEST22 (AD); Y2H Gold strain; SD/-Trp/-Leu and SD/-Trp/-Leu/-His/-Ade medium

Row | binding | Binder
1 | no binding | B1
2 | binds | B2
3 | no binding | B3
4 | binds | B4
5 | no binding | B5
6 | no binding | B6

Biological target: OsNF-YC11 (rice (Oryza sativa))
Assay: as above

Row | binding | Binder
7 | no binding | B1
8 | no binding | B2
9 | no binding | B3
10 | no binding | B4
11 | no binding | B5
12 | no binding | B6

Biological target: OsNF-YC12 (rice (Oryza sativa))
Assay: as above

Row | binding | Binder
13 | no binding | B1
14 | no binding | B2
15 | no binding | B3
16 | no binding | B4
17 | no binding | B5
18 | no binding | B6

Biological target: OsNF-YC8 (rice (Oryza sativa))
Assay: as above

Row | binding | Binder
19 | no binding | B1
20 | no binding | B2
21 | no binding | B3
22 | no binding | B4
23 | no binding | B5
24 | no binding | B6

Biological target: OsNF-YC9 (rice (Oryza sativa))
Assay: as above

Row | binding | Binder
25 | no binding | B1
26 | no binding | B2
27 | no binding | B3
28 | no binding | B4
29 | no binding | B5
30 | no binding | B6

No constants are given. Whether binding was seen depends on the method and setting. For part of these data: A result given as binding can be weak or reduced; the word gives no strength.
